Laboratory results as given in patent US20050208041A1 (Bristol-Myers Squibb, published 2005).
Positions count from the first letter of the chain named. These are yes or no findings as the source states them, for the method shown. Some entries that bind do so weakly or less than the wild type.

Protein sequences, listed by entry. Tags and fused reporters are not part of them. Lines headed by an entry give the natural chain unless they say otherwise; changes in a name come on top. Chains listed by the source or under a name are the forms on record and can include a tag or linker. Residues count along the entry.
UniProt P17181, residues 28-436: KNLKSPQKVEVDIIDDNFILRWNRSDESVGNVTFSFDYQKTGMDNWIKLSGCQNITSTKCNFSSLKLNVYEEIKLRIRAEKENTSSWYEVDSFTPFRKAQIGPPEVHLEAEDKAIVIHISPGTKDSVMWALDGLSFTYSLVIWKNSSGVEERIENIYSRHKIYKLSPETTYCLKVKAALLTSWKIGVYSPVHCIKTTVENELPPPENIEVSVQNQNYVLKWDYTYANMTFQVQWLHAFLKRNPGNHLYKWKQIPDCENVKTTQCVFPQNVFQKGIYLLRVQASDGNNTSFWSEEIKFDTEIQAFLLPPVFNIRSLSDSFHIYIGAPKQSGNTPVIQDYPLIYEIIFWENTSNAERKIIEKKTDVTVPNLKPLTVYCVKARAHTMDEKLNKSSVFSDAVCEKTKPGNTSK
IFNAR-1 on peripheral blood cells from rhesus monkeys (H9FTY2, form named): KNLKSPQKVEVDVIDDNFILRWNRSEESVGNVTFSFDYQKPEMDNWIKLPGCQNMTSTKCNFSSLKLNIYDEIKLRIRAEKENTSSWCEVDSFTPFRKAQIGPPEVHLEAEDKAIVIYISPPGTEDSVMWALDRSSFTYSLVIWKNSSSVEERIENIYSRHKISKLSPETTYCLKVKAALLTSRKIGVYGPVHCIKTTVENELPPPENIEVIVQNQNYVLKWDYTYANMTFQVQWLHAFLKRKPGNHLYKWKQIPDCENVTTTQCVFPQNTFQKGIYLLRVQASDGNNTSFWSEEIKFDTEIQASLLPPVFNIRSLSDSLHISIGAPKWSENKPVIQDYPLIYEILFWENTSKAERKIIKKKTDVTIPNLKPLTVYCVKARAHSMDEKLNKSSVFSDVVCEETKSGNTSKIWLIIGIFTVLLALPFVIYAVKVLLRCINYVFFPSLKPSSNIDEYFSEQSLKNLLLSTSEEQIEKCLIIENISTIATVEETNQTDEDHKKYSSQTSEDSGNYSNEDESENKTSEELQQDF

B1: DI M3-B heavy chain with K1-C light chain (Example 3) (antibody, V domains shown)
VH: EVQLLESGGGLVQPGGSLRLSCAASGFTMSTSGMGIGWIRQTPGKGLEWVAHIWWDDDKYYNPSLKARFTISRDTSKNTLYLQMNSLRAEDTAVYYCARNYYPYDAWFDYWGQGTLVTVS
VL: DIQMTQSPSSLSASVGDRVTITCSASTSINSNHLHWYQQKPGKAPKLLIYRTSILASGVPSRFSGSGSGTSFTLTISSLQPEDFATYYCQQGSNIPFTFGQGTKVEIKR
notes: also called DIM3-B K1-C; DI M3-B K1-C
B2: H3K1 (IgG4) (antibody, V domains shown)
VH: B1 VH with L5V, A24F, M29L, I39V, T42A, A67S, L80V
VL: B1 VL with T27S
notes: also called H3K1 standard; humanized anti-IFNAR-1 mAb H3K1

Tests used:
[1] = biological target: purified recombinant IFNAR-1 extracellular fragment (human) (UniProt P17181); assay: Biacore, antibody captured on anti-human IgG Fc, soluble IFNAR-1 25-400 nM
[2] = biological target: IFNAR-1 on peripheral blood cells from rhesus monkeys (rhesus monkey) (UniProt H9FTY2); assay: flow cytometry on peripheral blood cells from rhesus monkeys

Binder	binding [1]	binding [2]
B1	binds	
B2		binds
